Laboratory results taken from the supplement of paper PMC12823440, “Inhibitors supercharge kinase turnover through native proteolytic circuits” (Nature, 2025).
Structures can show the parent of a compound that is named as a salt. The list shows a part of the results. Hit calls seldom repeat between salt and free forms of one compound.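 In K562 cells expressing nanoluciferase-fused kinases, luminescence was recorded at 4 h intervals between 2 and 18 h, normalized as percent of control with DMSO at 100% and a positive control at 0%. A significant (2 sigma) signal drop marks a time point as decreased. The authors' rule for a hit is not shown and takes in more than the number of time points.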

Amino acid sequences for entries named in this document (tags omitted). A change or cut given only in a name is not applied to a line headed by its entry.
UniProt Q15208: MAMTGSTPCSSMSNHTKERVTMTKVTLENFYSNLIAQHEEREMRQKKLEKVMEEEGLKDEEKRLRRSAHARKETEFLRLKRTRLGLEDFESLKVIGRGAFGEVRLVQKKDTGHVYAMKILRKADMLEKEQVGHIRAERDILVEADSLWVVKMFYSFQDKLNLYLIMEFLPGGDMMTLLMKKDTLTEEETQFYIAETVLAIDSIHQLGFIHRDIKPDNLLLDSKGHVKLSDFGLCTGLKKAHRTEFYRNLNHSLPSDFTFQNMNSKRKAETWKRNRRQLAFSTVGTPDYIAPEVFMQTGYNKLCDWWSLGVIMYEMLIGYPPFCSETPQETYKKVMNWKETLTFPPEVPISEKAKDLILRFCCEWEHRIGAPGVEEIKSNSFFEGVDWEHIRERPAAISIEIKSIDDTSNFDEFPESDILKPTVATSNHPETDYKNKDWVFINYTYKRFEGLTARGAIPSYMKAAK
UniProt P42680: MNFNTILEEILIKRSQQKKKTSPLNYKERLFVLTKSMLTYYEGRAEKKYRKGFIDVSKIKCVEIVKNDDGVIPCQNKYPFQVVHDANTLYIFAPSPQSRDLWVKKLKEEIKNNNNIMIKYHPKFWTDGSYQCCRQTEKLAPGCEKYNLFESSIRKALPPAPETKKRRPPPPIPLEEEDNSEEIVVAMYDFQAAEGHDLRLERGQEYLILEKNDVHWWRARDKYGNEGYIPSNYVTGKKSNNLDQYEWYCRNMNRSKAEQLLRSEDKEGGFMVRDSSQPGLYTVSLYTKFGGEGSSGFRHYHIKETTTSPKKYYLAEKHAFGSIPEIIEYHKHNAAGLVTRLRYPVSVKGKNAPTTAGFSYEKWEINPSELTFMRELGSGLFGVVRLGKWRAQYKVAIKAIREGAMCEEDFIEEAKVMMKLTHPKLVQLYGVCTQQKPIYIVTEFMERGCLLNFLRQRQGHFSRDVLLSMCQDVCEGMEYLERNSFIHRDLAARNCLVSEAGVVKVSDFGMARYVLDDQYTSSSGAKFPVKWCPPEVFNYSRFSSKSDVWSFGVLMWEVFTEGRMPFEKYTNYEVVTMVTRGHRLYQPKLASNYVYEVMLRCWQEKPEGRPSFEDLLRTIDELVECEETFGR
UniProt P29597: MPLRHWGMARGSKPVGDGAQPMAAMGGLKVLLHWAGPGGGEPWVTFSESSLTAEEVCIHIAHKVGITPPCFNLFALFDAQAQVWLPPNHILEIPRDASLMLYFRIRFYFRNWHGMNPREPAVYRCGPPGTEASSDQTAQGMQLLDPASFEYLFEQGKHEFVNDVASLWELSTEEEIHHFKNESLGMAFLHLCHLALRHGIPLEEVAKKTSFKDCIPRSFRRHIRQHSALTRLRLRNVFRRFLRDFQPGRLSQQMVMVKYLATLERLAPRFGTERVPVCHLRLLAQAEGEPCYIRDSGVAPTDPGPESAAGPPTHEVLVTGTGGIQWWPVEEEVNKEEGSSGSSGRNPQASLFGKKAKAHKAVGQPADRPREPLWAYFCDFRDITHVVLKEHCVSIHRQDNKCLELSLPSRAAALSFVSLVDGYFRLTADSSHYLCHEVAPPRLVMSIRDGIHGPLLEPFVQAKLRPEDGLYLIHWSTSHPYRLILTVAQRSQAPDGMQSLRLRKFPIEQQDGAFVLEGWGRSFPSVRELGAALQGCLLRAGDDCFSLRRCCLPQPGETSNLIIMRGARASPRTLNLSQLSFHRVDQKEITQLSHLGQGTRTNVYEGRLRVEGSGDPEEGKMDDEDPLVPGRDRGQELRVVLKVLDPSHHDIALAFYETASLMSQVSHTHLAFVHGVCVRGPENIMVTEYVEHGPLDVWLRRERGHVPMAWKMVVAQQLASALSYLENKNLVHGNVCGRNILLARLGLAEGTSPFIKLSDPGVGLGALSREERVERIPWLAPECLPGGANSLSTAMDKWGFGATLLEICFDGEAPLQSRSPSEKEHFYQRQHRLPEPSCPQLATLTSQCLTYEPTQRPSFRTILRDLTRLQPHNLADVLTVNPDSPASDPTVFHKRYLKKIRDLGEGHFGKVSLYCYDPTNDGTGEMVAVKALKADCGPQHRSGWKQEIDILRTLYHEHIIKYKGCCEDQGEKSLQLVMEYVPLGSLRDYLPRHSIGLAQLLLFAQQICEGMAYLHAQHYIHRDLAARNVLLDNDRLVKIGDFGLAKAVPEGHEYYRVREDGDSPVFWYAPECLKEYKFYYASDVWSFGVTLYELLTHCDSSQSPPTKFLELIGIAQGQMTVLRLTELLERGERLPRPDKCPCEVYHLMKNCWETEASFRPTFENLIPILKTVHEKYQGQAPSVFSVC
UniProt Q6PHR2: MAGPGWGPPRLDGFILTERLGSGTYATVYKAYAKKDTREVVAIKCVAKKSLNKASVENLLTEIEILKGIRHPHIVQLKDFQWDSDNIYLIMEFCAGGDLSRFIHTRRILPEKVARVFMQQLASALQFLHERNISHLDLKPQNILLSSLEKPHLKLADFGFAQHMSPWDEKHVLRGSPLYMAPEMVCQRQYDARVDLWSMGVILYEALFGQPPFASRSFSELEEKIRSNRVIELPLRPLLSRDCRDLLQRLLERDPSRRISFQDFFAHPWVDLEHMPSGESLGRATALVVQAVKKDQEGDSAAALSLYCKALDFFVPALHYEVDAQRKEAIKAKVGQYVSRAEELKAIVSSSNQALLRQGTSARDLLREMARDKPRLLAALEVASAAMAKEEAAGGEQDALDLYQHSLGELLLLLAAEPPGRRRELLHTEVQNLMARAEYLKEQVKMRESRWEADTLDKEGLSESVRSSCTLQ
UniProt P07947, whole entry, looked up: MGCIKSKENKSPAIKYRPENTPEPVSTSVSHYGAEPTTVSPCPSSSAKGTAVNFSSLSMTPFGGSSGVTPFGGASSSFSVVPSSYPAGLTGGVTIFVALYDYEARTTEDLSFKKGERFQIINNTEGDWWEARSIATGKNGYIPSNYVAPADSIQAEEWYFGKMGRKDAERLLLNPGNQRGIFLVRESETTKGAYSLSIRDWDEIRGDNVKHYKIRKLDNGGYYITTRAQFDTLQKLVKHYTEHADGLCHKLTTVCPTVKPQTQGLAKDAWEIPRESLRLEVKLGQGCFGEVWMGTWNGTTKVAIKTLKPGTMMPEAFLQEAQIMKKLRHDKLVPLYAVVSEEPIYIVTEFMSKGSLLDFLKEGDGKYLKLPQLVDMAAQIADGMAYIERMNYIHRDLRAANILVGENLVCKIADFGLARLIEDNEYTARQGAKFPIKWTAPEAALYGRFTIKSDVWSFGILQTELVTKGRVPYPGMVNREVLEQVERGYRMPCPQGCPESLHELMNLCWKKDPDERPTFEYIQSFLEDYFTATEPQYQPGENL
UniProt P43403: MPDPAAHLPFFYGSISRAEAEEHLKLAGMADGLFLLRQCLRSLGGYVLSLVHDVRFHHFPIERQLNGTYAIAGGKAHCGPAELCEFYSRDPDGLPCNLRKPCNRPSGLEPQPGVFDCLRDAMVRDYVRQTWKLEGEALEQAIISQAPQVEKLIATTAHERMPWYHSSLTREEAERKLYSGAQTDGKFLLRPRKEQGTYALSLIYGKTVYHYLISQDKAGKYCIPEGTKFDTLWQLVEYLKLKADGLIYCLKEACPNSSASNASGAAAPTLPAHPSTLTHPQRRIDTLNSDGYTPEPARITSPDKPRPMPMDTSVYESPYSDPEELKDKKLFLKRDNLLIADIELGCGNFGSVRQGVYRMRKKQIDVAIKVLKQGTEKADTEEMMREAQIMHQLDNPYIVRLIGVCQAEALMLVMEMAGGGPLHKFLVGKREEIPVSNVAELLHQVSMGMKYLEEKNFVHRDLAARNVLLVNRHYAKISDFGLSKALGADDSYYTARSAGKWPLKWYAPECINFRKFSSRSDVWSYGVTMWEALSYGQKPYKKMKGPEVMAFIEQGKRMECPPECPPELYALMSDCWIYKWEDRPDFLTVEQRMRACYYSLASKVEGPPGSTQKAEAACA
UniProt P00519, whole entry: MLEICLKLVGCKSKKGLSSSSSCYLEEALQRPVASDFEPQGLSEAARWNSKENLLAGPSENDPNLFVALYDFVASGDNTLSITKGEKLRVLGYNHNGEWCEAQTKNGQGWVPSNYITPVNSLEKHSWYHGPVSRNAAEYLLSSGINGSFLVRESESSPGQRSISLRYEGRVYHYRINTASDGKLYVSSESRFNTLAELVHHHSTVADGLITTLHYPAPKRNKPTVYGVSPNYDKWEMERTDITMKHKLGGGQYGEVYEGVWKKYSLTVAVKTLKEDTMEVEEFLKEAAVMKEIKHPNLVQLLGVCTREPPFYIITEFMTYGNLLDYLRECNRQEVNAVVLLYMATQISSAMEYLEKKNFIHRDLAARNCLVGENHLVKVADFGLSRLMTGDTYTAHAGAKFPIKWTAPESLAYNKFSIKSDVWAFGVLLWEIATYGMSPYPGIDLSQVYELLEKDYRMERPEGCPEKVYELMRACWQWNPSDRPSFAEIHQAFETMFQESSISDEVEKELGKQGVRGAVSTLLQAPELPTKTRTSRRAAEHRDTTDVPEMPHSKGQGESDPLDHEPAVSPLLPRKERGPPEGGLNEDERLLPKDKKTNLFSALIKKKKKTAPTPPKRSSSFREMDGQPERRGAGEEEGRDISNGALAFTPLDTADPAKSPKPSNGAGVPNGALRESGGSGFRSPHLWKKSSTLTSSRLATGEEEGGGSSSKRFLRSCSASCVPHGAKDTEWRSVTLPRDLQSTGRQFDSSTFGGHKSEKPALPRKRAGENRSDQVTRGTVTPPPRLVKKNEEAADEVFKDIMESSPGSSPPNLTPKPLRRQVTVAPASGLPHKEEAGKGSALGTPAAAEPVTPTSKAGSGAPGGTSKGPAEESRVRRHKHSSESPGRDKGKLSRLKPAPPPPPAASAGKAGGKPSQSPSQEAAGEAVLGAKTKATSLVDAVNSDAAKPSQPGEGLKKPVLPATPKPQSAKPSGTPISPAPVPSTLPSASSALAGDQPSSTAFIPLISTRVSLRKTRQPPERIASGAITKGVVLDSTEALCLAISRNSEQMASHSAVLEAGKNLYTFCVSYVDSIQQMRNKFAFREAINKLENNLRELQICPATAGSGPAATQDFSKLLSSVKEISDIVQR
UniProt P31749: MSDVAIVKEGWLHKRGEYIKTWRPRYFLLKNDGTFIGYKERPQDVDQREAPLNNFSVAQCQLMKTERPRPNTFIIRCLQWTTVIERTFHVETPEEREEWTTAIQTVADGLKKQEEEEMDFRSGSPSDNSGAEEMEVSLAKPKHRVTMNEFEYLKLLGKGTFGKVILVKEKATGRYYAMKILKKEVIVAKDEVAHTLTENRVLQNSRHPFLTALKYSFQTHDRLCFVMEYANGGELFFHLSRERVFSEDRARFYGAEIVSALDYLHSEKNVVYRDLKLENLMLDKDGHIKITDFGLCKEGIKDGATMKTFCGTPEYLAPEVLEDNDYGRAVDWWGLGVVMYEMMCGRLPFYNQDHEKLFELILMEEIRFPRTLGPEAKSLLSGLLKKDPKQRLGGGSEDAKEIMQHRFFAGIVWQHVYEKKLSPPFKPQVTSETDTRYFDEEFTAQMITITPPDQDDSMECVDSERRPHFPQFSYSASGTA

Legend:
Settings in all cases: K562; 2-18 h
STK38 = STK38 (UniProt Q15208); test: kinase-Nluc reporter destabilization hit call (1 = scored as downregulated) (binary); higher = compound decreases kinase abundance
SYK = SYK (UniProt P43405); test: as above
TEC = TEC (UniProt P42680); test: as above
TYK2 = TYK2 (UniProt P29597); test: as above
ULK3 = ULK3 (UniProt Q6PHR2); test: as above
YES1 = YES1 (UniProt P07947); test: as above
ZAK = ZAK (UniProt Q9NYL2); test: as above
ZAP70 = ZAP70 (UniProt P43403); test: as above
ABL1 = ABL1 (UniProt P00519); test: number of time points (of 5) at which kinase-Nluc abundance scored as decreased, DMSO-normalised (count); higher = more persistent destabilization
AKT1 = AKT1 (UniProt P31749); test: as above

Structure (SMILES) | kinase-Nluc reporter destabilization hit call (STK38) | kinase-Nluc reporter destabilization hit call (SYK) | kinase-Nluc reporter destabilization hit call (TEC) | kinase-Nluc reporter destabilization hit call (TYK2) | kinase-Nluc reporter destabilization hit call (ULK3) | kinase-Nluc reporter destabilization hit call (YES1) | kinase-Nluc reporter destabilization hit call (ZAK) | kinase-Nluc reporter destabilization hit call (ZAP70) | number of time points (ABL1) | number of time points (AKT1)
C=CC(=O)Nc1cc(Nc2nccc(-n3cc(CN(C)C)c(-c4ccccc4)n3)n2)c(OC)cc1N1CCOCC1 [Lazertinib] (10 µM) | inactive: 0 | inactive: 0 | inactive: 0 | inactive: 0 | inactive: 0 | inactive: 0 | inactive: 0 | inactive: 0 | 0 | 0
O=C1NC(=O)C(c2cnc3ccccn23)=C1c1cn2c3c(cc(F)cc13)CNCC2 [GSK-3 inhibitor 1] (2.5 µM) | inactive: 0 | inactive: 0 | inactive: 0 | inactive: 0 | inactive: 0 | inactive: 0 | inactive: 0 | inactive: 0 | 0 | 0
C#Cc1cccc(Nc2ncnc3cc(OC)c(OCCCCCCC(=O)NO)cc23)c1 (2.5 µM) | inactive: 0 | inactive: 0 | inactive: 0 | inactive: 0 | inactive: 0 | inactive: 0 | inactive: 0 | inactive: 0 | 0 | 0
CNC(=O)c1ccccc1Nc1nc(Nc2ccc3c(c2OC)CCC[C@H](N2CCN(CCO)CC2)C3)ncc1Cl (10 µM) | inactive: 0 | inactive: 0 | inactive: 0 | inactive: 0 | inactive: 0 | inactive: 0 | inactive: 0 | inactive: 0 | 5 | 0
Cc1ccc2c(Nc3cccc(Cl)c3F)nccc2c1NC(=O)c1csc2c(N)ncnc12 [Belvarafenib] (10 µM) | inactive: 0 | inactive: 0 | inactive: 0 | inactive: 0 | inactive: 0 | inactive: 0 | inactive: 0 | inactive: 0 | 0 | 0
Nc1nc(N)c2nc(-c3cccc(O)c3)cnc2n1 (10 µM) | inactive: 0 | inactive: 0 | inactive: 0 | inactive: 0 | inactive: 0 | inactive: 0 | inactive: 0 | inactive: 0 | 0 | 0
Nc1cccc(-c2cc3c(Oc4cccc(O)c4)ncnc3[nH]2)c1 (10 µM) | inactive: 0 | inactive: 0 | inactive: 0 | inactive: 0 | inactive: 0 | inactive: 0 | inactive: 0 | inactive: 0 | 3 | 0
Cn1cc2cc(C(F)(F)c3nnc4ccc(-c5cnn(C6CC6)c5)nn34)c(F)cc2n1 [Bozitinib] (10 µM) | inactive: 0 | inactive: 0 | inactive: 0 | inactive: 0 | inactive: 0 | inactive: 0 | inactive: 0 | inactive: 0 | 0 | 0
Cn1cnc([N+](=O)[O-])c1C[N+](C)(C)C/C=C/C(=O)Nc1cc2c(Nc3ccc(Cl)c(Br)c3)ncnc2cn1 [Tarloxotinib (bromide)] (10 µM) | inactive: 0 | inactive: 0 | inactive: 0 | inactive: 0 | inactive: 0 | inactive: 0 | inactive: 0 | inactive: 0 | 0 | 0
CCc1ccc(OCC(=O)Nc2ccc(F)c([N+](=O)[O-])c2)cc1 (10 µM) | inactive: 0 | inactive: 0 | inactive: 0 | inactive: 0 | inactive: 0 | inactive: 0 | inactive: 0 | inactive: 0 | 0 | 0
Cn1cc(-c2c[nH]c3ncnc(N4CCOCC4)c23)cc1C#N (10 µM) | inactive: 0 | inactive: 0 | inactive: 0 | inactive: 0 | inactive: 0 | inactive: 0 | inactive: 0 | inactive: 0 | 0 | 0
Cc1cc(C)nc(NS(=O)(=O)c2ccc(NC(=S)NC(=O)COc3ccc(Br)cc3Cl)cc2)n1 (2.5 µM) | inactive: 0 | inactive: 0 | inactive: 0 | inactive: 0 | inactive: 0 | inactive: 0 | inactive: 0 | inactive: 0 | 0 | 0
CN(C)S(=O)(=O)c1ccc2c(c1)/C(=C/c1cc3c([nH]1)CCCC3)C(=O)N2 (2.5 µM) | inactive: 0 | inactive: 0 | inactive: 0 | inactive: 0 | inactive: 0 | inactive: 0 | inactive: 0 | inactive: 0 | 4 | 0
CN1CC[C@@H](c2c(O)cc(O)c3c(=O)cc(-c4ccc(C(F)(F)F)cc4Cl)oc23)[C@@H]1CO [Voruciclib (hydrochloride)] (10 µM) | inactive: 0 | inactive: 0 | inactive: 0 | inactive: 0 | inactive: 0 | inactive: 0 | inactive: 0 | inactive: 0 | 0 | 0
Cc1ccc(Oc2nc3cc(-c4ccc(-c5ccccc5)cc4)c(Cl)cc3[nH]2)cc1C(=O)O (10 µM) | inactive: 0 | inactive: 0 | inactive: 0 | inactive: 0 | inactive: 0 | inactive: 0 | inactive: 0 | inactive: 0 | 0 | 0
CCN(CC)c1ccc2cc(-c3nc4cc(C)ccc4o3)c(=O)oc2c1 (10 µM) | inactive: 0 | inactive: 0 | inactive: 0 | inactive: 0 | inactive: 0 | inactive: 0 | inactive: 0 | inactive: 0 | 0 | 0

A second format for 2 compounds above:
Structure (SMILES)	kinase-Nluc reporter destabilization hit call (STK38)	kinase-Nluc reporter destabilization hit call (SYK)	kinase-Nluc reporter destabilization hit call (TEC)	kinase-Nluc reporter destabilization hit call (TYK2)	kinase-Nluc reporter destabilization hit call (ULK3)	kinase-Nluc reporter destabilization hit call (YES1)	kinase-Nluc reporter destabilization hit call (ZAK)	kinase-Nluc reporter destabilization hit call (ZAP70)	number of time points (ABL1)	number of time points (AKT1)
C=CC(=O)Nc1cc(Nc2nccc(-n3cc(CN(C)C)c(-c4ccccc4)n3)n2)c(OC)cc1N1CCOCC1 [Lazertinib] (10 µM)	inactive: 0	inactive: 0	inactive: 0	inactive: 0	inactive: 0	inactive: 0	inactive: 0	inactive: 0	0	0
Nc1nc(N)c2nc(-c3cccc(O)c3)cnc2n1 (10 µM)	inactive: 0	inactive: 0	inactive: 0	inactive: 0	inactive: 0	inactive: 0	inactive: 0	inactive: 0	0	0
